Assay [1] concerns the target β-catenin (human (endogenous in corneal epithelium)) (UniProt P35222). The assay is described as follows: affinity purification with mass spectrometry; endogenous β-catenin co-IP from pooled control corneal epithelium lysates (RIPA buffer); SDS-PAGE, in-gel trypsin digestion, MALDI-TOF, Mascot; proteins found in the IgG control subtracted.
For assay [2] the target is unchanged. The assay is described as follows: affinity purification with mass spectrometry; endogenous β-catenin co-IP from pooled mild KC corneal epithelium lysates (RIPA buffer); SDS-PAGE, in-gel trypsin digestion, MALDI-TOF, Mascot; proteins found in the IgG control subtracted.

The chains behind the UniProt entries cited, without tags or fusion partners. Residues count along the entry.
UniProt P35222: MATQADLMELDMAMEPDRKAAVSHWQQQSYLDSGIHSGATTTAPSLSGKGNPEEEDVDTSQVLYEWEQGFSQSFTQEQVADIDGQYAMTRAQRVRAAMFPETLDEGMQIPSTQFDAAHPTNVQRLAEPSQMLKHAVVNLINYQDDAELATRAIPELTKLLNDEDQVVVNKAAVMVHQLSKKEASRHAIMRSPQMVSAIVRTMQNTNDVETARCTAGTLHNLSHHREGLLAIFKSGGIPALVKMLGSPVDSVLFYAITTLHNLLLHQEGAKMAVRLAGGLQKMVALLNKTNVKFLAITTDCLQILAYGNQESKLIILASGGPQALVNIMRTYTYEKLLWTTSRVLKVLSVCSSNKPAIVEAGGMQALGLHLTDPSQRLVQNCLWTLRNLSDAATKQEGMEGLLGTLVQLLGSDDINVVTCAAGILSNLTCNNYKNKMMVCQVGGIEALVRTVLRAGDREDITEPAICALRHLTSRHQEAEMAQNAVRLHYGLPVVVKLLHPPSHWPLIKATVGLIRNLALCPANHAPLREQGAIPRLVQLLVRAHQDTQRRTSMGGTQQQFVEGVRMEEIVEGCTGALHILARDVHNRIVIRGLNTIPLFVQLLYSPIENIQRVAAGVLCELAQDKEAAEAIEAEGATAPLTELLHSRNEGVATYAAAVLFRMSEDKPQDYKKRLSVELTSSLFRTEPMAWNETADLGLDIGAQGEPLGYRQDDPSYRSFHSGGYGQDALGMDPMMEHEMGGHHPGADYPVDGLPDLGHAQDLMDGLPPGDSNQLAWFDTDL
UniProt P48431: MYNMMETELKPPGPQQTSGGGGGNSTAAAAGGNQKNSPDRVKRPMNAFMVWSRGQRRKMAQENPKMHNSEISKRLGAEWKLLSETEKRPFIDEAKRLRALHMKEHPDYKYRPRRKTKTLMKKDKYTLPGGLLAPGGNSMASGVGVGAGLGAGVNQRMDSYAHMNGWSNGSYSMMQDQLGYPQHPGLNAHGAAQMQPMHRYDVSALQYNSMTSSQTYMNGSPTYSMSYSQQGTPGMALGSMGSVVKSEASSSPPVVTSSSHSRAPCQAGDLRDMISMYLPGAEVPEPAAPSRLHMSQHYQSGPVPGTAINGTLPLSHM
UniProt P24821, residues 23-2201: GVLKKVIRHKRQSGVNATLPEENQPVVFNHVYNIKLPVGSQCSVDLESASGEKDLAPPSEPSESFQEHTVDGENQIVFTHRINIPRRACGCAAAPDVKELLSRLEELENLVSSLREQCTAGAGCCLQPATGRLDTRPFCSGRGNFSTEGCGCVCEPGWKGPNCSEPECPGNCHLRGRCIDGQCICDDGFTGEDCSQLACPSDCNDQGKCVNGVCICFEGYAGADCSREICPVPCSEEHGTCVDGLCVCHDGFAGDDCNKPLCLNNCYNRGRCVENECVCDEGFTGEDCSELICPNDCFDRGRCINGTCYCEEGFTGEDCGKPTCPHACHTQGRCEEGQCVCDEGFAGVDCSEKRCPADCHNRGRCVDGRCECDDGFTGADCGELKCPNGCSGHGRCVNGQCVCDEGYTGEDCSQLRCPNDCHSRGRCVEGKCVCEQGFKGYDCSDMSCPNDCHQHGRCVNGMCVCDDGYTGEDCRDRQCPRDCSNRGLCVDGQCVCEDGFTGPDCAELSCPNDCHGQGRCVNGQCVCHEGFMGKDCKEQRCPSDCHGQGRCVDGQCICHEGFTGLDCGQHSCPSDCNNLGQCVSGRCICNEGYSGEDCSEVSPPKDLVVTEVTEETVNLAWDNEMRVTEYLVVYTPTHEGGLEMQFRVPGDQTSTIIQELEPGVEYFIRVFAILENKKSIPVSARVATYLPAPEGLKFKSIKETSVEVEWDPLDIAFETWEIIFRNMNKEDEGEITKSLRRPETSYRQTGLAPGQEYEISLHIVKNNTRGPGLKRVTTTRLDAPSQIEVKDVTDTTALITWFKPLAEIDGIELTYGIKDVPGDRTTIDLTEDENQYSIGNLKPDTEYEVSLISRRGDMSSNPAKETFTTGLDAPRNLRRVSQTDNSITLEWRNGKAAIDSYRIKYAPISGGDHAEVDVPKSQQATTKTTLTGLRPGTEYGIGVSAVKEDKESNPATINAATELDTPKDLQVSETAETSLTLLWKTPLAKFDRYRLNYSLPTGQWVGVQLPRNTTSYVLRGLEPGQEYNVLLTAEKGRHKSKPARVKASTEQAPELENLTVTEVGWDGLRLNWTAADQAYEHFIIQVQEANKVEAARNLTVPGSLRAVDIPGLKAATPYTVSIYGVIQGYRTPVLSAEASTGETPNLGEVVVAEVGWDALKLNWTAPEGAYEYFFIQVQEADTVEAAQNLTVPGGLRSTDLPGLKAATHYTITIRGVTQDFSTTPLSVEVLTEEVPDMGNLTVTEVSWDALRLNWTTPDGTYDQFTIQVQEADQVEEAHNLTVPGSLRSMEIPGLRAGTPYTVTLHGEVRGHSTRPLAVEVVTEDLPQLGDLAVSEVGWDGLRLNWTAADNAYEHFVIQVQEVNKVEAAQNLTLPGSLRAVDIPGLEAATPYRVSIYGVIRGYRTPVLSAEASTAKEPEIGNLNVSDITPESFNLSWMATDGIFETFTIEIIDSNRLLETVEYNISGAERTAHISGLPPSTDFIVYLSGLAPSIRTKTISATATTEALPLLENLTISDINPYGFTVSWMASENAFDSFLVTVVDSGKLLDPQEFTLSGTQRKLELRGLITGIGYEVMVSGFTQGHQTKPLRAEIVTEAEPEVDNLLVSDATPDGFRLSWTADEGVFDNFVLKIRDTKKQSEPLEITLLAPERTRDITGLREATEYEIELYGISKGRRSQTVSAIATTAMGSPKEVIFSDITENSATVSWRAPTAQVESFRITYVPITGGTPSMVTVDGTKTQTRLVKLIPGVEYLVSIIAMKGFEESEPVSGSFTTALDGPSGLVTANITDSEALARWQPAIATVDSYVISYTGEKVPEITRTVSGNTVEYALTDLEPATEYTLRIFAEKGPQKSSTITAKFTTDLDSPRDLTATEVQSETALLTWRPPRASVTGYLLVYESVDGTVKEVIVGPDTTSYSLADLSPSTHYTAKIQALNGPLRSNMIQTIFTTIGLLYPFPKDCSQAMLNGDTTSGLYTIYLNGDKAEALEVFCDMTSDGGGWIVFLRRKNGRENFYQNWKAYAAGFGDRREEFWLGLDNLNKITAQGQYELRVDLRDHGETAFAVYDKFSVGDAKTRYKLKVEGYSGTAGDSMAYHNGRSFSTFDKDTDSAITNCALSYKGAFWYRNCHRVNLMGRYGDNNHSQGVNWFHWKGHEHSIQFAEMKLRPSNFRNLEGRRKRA
UniProt P17948, residues 27-1338: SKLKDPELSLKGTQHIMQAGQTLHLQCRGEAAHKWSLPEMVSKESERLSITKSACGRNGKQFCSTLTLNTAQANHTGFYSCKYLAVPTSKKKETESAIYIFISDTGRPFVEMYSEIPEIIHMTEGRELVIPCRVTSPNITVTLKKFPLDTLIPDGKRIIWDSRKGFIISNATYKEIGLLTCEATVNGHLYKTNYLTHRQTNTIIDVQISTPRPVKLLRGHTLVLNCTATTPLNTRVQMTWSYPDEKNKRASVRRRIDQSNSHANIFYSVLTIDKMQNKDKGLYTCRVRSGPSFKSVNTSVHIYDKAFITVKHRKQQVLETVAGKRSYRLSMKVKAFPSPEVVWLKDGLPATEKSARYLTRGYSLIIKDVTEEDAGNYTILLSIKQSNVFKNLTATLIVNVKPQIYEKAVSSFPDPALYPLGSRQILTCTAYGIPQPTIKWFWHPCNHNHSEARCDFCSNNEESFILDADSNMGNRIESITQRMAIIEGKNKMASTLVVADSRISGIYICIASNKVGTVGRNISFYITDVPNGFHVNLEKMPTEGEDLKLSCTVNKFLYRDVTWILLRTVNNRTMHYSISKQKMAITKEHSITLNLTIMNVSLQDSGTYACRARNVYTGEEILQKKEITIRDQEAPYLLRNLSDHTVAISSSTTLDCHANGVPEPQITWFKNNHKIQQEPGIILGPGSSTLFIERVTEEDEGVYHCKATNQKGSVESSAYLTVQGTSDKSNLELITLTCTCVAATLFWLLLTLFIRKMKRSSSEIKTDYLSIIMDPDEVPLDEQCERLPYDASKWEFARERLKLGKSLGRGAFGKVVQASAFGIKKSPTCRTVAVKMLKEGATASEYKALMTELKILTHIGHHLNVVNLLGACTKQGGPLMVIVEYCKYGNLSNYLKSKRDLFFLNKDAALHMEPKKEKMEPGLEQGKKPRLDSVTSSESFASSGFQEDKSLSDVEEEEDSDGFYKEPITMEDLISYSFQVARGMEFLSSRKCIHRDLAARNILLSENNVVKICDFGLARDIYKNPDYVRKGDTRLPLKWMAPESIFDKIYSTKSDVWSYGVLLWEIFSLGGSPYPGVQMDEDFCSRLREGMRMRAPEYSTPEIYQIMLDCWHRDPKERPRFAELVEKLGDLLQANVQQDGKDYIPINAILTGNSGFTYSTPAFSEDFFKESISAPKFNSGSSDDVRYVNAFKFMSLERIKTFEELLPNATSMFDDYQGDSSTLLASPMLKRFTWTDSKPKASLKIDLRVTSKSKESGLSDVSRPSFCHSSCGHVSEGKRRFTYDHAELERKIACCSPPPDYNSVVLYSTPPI

Our source for the binding values is paper PMC7721701.

These are yes or no findings as the source states them, for the method shown. In cells and extracts the contact can be indirect. A yes stands for co-enrichment or nearness to the bait. Other partners may have been found. For some assays here: A no says only that the protein was not detected with the bait.

As to SOX-2 (from UniProt P48431 1-317), the binding entry in assay [1] was “binds”; in assay [2], “no binding (only in mild KC epithelium)”.
Taken in the same sequence, the figures for “Tenascin C (from UniProt P24821 23-2201)” were “binds” and “binds”.
The corresponding values for “Vascular Endothelial growth factor receptor 1 (from UniProt P17948 27-1338)” are “binds” and “no binding (only in mild KC epithelium)”.

B1: Tetkin4 (protein, UniProt Q8WW24 1-435)
chain: MAQTVPPCELPCKEYDVARNTGAYTSSGLATASFRTSKYLLEEWFQNCYARYHQAFADRDQSERQRHESQQLATETQALAQRTQQDSTRTVGERLQDTHSWKSELQREMEALAAETNLLLAQKQRLERALDATEVPFSITTDNLQCRERREHPNLVRDHVETELLKEAELIRNIQELLKRTIMQAVSQIRLNREHKETCEMDWSDKMEAYNIDETCGRHHSQSTEVQAHPYSTTFQESASTPETRAKFTQDNLCRAQRERLASANLRVLVDCILRDTSEDLRLQCDAVNLAFGRRCEELEDARYKLHHHLHKTLREITDQEHNVAALKQAIKDKEAPLHVAQTRLYLRSHRPNMELCRDAAQFRLLSEVEELNMSLTALREKLLEAEQSLRNLEDIHMSLEKDIAAMTNSLFIDRQKCMAHRTRYPTILQLAGYQ
With B1, in assay [1], the binding entry was “binds”.

B2: AH receptor-interacting protein (protein, UniProt O00170 1-330)
chain: MADIIARLREDGIQKRVIQEGRGELPDFQDGTKATFHYRTLHSDDEGTVLDDSRARGKPMELIIGKKFKLPVWETIVCTMREGEIAQFLCDIKHVVLYPLVAKSLRNIAVGKDPLEGQRHCCGVAQMREHSSLGHADLDALQQNPQPLIFHMEMLKVESPGTYQQDPWAMTDEEKAKAVPLIHQEGNRLYREGHVKEAAAKYYDAIACLKNLQMKEQPGSPEWIQLDQQITPLLLNYCQCKLVVEEYYEVLDHCSSILNKYDDNVKAYFKRGKAHAAVWNAQEAQADFAKVLELDPALAPVVSRELRALEARIRQKDEEDKARFRGIFSH
As for B2, in assay [1], the binding entry is “binds”.
